This assay deals with conscious male spontaneously hypertensive rats (SHR). The assay is described as follows: anti-hypertensive response: area under the control group blood pressure curve (mean arterial blood pressure, indwelling catheter) in conscious male spontaneously hypertensive rats. The class given is in vivo. To be noted: atenolol 10 mg/kg po, n=10, MAP as % change from pretreatment baseline. As to the method: Mean arterial blood pressures were measured from an indwelling catheter as described by Buckingham 1976 J. Pharm. Pharmac Vol. 28, pp 459-461. 1. Calculation of area under the control group blood pressure curve (AUC). Group mean arterial blood pressure values were calculated as % change from the pretreatment baseline. For each drug treatment group the area under the control group blood pressure curve was calculated using a trapezoidal method. […] Predicted AUC values were arrived at by combining values for each treatment given alone.

The structures appear in SMILES notation.

As to `CC(C)NCC(O)COc1ccc(CC(N)=O)cc1` (centres unmarked) [Atenolol], where the note is “0-2 h”, the “AUC (0-2 h)” value amounted to 660. For the setting “0-4 h”, the “AUC (0-4 h)” value stood at 2356.
